{
  "sequences": {"note": "Protein sequences, listed by entry. Tags and fused reporters are not part of them.", "UniProt P56524": "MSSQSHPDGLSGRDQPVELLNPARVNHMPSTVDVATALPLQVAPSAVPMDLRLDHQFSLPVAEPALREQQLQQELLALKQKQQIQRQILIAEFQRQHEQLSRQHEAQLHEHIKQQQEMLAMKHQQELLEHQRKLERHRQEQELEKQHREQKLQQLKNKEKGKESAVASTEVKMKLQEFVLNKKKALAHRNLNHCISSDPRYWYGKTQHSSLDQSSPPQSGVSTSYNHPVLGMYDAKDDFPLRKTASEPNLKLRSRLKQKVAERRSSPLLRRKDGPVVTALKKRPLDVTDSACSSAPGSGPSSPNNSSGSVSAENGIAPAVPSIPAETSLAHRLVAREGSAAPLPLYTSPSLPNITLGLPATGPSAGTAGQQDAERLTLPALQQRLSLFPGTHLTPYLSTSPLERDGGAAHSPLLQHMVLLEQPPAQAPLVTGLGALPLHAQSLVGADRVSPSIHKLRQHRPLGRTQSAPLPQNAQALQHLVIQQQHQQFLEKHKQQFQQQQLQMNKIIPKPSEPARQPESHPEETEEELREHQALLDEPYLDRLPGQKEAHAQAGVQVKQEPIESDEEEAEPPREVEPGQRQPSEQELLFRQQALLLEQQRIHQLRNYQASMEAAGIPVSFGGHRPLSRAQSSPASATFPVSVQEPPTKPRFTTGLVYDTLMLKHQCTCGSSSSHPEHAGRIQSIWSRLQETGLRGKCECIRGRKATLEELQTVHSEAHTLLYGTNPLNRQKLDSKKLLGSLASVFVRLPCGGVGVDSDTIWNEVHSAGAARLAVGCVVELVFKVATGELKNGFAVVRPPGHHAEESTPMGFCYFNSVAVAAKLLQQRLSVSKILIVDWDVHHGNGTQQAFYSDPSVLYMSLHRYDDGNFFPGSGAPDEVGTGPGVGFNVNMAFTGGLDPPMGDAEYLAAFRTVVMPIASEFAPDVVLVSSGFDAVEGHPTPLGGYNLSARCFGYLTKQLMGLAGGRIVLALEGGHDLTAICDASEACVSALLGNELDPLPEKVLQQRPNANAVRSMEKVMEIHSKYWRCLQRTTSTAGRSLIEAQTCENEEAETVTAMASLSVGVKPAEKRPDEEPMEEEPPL", "UniProt P63151": "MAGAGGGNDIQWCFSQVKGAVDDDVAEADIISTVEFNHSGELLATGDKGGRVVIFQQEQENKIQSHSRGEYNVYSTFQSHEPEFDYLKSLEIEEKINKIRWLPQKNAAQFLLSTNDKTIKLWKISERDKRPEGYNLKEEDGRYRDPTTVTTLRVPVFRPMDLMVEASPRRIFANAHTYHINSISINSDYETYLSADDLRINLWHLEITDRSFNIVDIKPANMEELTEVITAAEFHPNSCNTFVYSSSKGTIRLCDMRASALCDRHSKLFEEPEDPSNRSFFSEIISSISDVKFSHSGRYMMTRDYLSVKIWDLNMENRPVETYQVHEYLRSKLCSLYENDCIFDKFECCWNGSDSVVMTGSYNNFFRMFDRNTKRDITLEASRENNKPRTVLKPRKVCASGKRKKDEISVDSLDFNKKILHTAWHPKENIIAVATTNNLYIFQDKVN", "UniProt Q92769": "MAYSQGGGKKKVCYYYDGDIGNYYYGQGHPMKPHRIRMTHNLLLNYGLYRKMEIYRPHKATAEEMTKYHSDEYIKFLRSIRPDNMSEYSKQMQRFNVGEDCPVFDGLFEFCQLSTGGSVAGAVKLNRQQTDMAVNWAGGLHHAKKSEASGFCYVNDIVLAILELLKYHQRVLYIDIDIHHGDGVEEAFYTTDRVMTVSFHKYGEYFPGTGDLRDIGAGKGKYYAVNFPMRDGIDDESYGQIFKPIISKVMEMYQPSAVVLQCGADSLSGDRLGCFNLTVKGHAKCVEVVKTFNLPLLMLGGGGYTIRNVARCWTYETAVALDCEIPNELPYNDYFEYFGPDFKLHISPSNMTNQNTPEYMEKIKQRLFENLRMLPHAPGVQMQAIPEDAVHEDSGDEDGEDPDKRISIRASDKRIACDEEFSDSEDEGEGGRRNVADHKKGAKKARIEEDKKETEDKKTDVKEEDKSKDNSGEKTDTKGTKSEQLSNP", "UniProt P26599": "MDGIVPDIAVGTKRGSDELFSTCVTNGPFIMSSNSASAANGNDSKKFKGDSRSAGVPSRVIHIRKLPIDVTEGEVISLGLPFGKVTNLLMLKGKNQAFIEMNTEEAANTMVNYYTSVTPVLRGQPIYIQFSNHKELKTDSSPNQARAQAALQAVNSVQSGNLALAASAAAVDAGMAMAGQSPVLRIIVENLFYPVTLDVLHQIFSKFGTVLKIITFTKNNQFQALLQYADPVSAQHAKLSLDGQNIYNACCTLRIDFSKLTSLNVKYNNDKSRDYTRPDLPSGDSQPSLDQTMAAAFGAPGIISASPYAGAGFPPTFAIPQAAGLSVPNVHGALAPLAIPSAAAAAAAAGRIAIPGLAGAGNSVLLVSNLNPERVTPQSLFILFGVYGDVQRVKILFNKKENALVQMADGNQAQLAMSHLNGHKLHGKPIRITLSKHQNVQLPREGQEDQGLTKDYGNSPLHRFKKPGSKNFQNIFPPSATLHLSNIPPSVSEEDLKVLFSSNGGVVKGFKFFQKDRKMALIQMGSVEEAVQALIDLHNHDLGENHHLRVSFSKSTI", "UniProt O15379": "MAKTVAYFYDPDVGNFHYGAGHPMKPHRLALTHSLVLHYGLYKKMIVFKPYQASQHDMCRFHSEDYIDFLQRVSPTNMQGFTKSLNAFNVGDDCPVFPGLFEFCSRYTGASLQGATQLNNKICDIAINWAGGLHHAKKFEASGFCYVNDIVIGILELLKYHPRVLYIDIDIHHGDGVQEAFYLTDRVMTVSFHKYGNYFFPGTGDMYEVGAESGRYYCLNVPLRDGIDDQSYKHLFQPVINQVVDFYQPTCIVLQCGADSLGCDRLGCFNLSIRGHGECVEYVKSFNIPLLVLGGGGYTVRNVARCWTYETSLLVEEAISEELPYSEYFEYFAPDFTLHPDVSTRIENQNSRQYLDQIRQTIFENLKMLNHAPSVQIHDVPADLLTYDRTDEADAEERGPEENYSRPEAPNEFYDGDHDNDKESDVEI", "UniProt Q13555": "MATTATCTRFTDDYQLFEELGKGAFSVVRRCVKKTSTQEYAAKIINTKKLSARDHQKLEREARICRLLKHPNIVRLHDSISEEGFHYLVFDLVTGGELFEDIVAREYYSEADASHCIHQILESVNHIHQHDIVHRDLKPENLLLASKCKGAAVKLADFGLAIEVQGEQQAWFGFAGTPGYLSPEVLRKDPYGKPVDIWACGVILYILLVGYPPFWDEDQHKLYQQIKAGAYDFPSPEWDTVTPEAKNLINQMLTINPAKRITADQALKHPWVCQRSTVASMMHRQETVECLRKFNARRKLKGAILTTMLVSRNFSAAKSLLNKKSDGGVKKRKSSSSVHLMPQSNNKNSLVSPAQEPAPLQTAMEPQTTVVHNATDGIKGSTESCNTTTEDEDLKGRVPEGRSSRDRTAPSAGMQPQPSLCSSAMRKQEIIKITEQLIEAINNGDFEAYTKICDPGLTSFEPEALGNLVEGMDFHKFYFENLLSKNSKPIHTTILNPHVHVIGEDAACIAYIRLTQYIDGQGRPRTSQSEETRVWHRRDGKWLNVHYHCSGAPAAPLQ"},
  "source": "paper PMC11317144",
  "note": "Results are given in words; binding and its absence hold for the method and conditions named. Binding seen in cells or lysates may run through a third protein. These calls come from enrichment with a bait or labelling near it, and not all partners need be listed.",
  "data": [
    {"molecular_target": "endogenous GFP-tagged HDAC4 (PITCh knock-in) (human (endogenous in SK-LMS-1)) (UniProt P56524)", "assay": "affinity purification with mass spectrometry; 800 μg lysate of SK-LMS-1 HDAC4/GFP-PITCH cells on GFP-Trap magnetic agarose beads overnight, V5-Trap beads as control; two independent biological replicates (Figure 6I)", "values": [
      {"substance": "protein phosphatase 2 regulatory subunit Bα (PPP2R2A) (from UniProt P63151 1-447)", "binding": "binds"},
      {"substance": "HDAC2 (endogenous, SK-LMS-1) (from UniProt Q92769 1-488)", "binding": "binds"},
      {"substance": "PTBP1 (from UniProt P26599 1-557)", "binding": "binds"},
      {"substance": "HDAC3 (endogenous, SK-LMS-1) (from UniProt O15379 1-428)", "binding": "binds"},
      {"substance": "calcium/calmodulin-dependent protein kinase II gamma (CAMK2G) (from UniProt Q13555 1-558)", "binding": "binds"}
    ]}
  ]
}
